Assay results taken from PubChem BioAssay AID540276 (National Center for Advancing Translational Sciences (NCATS), 2011).
The whole screen tested about 300,000 compounds, of which about 5,400 (1.8%) were called active. Inconclusive means that the source gave no clear call. Such entries were picked first, then a sample of the others. Calls come from the whole dose curve; tested in HEK293 cells. Potencies of inconclusive entries are doubtful fits and often do not repeat.

test: qHTS for inhibitors of binding or entry into cells for Marburg Virus; conditions: Marburg virus pseudotyped entry inhibition, cell reporter; series mostly up to 37.8 µM
Potency is the fitted concentration of half-maximal effect.

Row | Structure (SMILES) | Potency
1 | COCc1cc(C)nc(OCC(=O)N/N=C/c2ccccc2)c1C#N | inconclusive: 0.562 µM [inhibitor, full curve, poor fit]
2 | O=C(NC(=S)Nn1cnnc1)c1ccccc1Cl | inactive
3 | CC1CC(c2ccccc2)=Nc2ccccc2N1 (configuration not stated) | inactive
4 | CC(=O)c1ccc(S(=O)(=O)NCCC(=O)OCC(=O)NCCc2ccccc2)cc1 | inconclusive: 11.2 µM [inhibitor, single point]
5 | CCOc1ccc(CCNC(=O)c2cn(C)c3ccc(S(=O)(=O)N4CCCCCC4)cc3c2=O)cc1OCC | inconclusive: 5.62 µM [inhibitor, single point]
6 | O=C(CCc1ccccc1)NCC1OCCc2ccccc21 (configuration not stated) | inconclusive: 3.55 µM [inhibitor, single point]
7 | Cc1cccc(-c2nnc(SCC(=O)Nc3cccc(C(=O)N4CCOCC4)c3)n2C)c1 | inconclusive: 0.082 µM [activator, full curve, poor fit]
8 | CCOC(=O)c1ccccc1-n1c(C)cc(C2N=C(N)Nc3nc4ccccc4n32)c1C (configuration not stated) | inconclusive: 29.1 µM [inhibitor, partial curve, poor fit]
9 | C/C(=N\Nc1ccc(S(=O)(=O)Nc2ccc(Cl)cc2)cc1[N+](=O)[O-])c1ccc(N2CCOCC2)cc1 | inactive
10 | CCN(C(=O)CSc1nc2ncccc2[nH]1)c1ccc(C(C)C)cc1 | inconclusive: 1.26 µM [inhibitor, full curve, poor fit]
11 | C=CCN1C(=O)S/C(=C/c2ccc(Sc3nc4ccccc4[nH]3)o2)C1=O | inconclusive: 17.8 µM [inhibitor, single point]
12 | CCN1CCN(Cc2c(O)ccc3c(=O)c(-c4ccccc4OC)coc23)CC1 | inactive
13 | CCOC(=O)c1c(N2CCCCC2)c2ccccc2[nH]c1=O | inactive
14 | CN1CCN(C(=O)c2ccc(-c3ccccc3)cc2)CC1 | inactive
15 | COc1ccc(OC)c(NC(=O)Nc2ccc(O)c3ccccc23)c1 | inconclusive: 12.6 µM [inhibitor, partial curve, poor fit]
16 | CCOc1ccccc1-n1c(=S)sc2c(=O)n(-c3ccc(C)cc3)c(=S)[nH]c21 | inconclusive: 0.891 µM [inhibitor, full curve, poor fit]
17 | Cc1nnsc1C(=O)NC1CCCc2c1cnn2-c1ccccc1F (configuration not stated) | inconclusive: 1.78 µM [inhibitor, full curve, poor fit]
18 | O=C(c1ccccc1)c1ncc(C(F)(F)F)cc1Cl | inactive
19 | Cc1sc(NC(=O)CSc2nnnn2C2CCCC2)c(C#N)c1C | inconclusive: 0.651 µM [inhibitor, partial curve, poor fit]
20 | O=C(COc1ccccc1Cl)Nc1ccc2oc(=O)ccc2c1 | inactive
21 | CCOc1ccc(S(=O)(=O)N2CCN(C(=O)C3CC3C)CC2)cc1 (configuration not stated) | inactive
22 | Cc1ccc(C)c(N2CCN(S(=O)(=O)c3c(C)[nH]c(C)c3C(=O)N3CCCC3)CC2)c1 | inconclusive: 14.1 µM [inhibitor, single point]
23 | Cc1ccc(-c2cc(C(=O)NCc3ccco3)c3ccccc3n2)o1 | inconclusive: 0.282 µM [activator, full curve, poor fit]

Row | Structure (SMILES) | Potency
24 | N#Cc1ccc(-c2ccc(OCC(=O)NCC(=O)Nc3ccc(F)c(F)c3F)cc2)cc1 | inconclusive: 0.631 µM [activator, full curve, poor fit]
25 | CN1CCN(C(=O)c2ccccc2N(Cc2ccccc2)S(=O)(=O)c2ccccc2)CC1 | inconclusive: 14.6 µM [inhibitor, partial curve, poor fit]
26 | CC(=O)c1cccc(OCC(=O)N2CCCc3ccccc32)c1 | inconclusive: 22.4 µM [activator, single point]
27 | O=C(CSc1nnc(CNc2ccc(F)cc2)n1Cc1ccccc1)NCc1ccccc1 | inconclusive: 5.62 µM [inhibitor, partial curve, poor fit]
28 | Cc1ccc(C)c(SCC(=O)NC2CCS(=O)(=O)C2)c1 (configuration not stated) | inconclusive: 0.891 µM [activator, partial curve, poor fit]
29 | Cc1ccc(C(=O)O)cc1S(=O)(=O)N1CCCC1 | inactive
30 | Cc1ccc(Nc2nc(N)c([N+](=O)[O-])c(N3CCCC(C)C3)n2)cc1C (configuration not stated) | active: 2.24 µM
31 | Cc1[nH]nc(C(F)(F)F)c1N=NN1CCOCC1 | inconclusive: 14.1 µM [inhibitor, partial curve, poor fit]
32 | O=C(CC12CC3CC(CC(C3)C1)C2)NCc1ccc(F)cc1 | inactive
33 | Cc1cc(C)cc(N(C(=O)c2snc(C(N)=O)c2N)C(C(=O)NCC2CCCO2)c2ccc(C)o2)c1 (configuration not stated) | inconclusive: 10 µM [inhibitor, partial curve, poor fit]
34 | CN(C(=O)c1cccnc1)c1nc(-c2ccccc2)cs1 | inconclusive: 0.73 µM [inhibitor, single point]
35 | CCN(CC)C1Oc2cc3c(cc2C(c2cc(OC)c(O)c(OC)c2)C1C)OCO3 (configuration not stated) | inactive
36 | COc1ccc(-c2cc(C(F)(F)F)nc(SCCC(=O)NCc3ccccc3)n2)cc1 | inactive
37 | O=C(NCc1ccc(F)cc1)c1cc2ccccc2o1 | inactive
38 | Cn1ccc(C(=O)Nc2sc3c(c2C(N)=O)CCCCC3)n1 | inconclusive: 14.1 µM [inhibitor, single point]
39 | COc1ccc(Cc2nc3ccc(C(=O)N(C)C(C)c4ccon4)cc3o2)cc1 (configuration not stated) | inconclusive: 14.1 µM [activator, partial curve, poor fit]
40 | N#CCCN/N=C(/Cc1nc2ccccc2[nH]1)c1cccc(Cl)c1 | inactive
41 | COc1ccc(N(CC(=O)Nc2cccc([N+](=O)[O-])c2C)S(C)(=O)=O)cc1OC | inconclusive: 0.398 µM [activator, partial curve, poor fit]
42 | CCc1ccc(NC(=O)c2sc3nc(C)c(Cl)c(C)c3c2NC(=O)c2ccccc2OC)cc1 | inactive
43 | O=C(CCS(=O)(=O)c1ccc(Cl)cc1)Nc1nnc(-c2ccco2)o1 | inconclusive: 7.94 µM [inhibitor, partial curve, poor fit]
44 | N#C/C(=C/c1ccc(-c2ccc(S(N)(=O)=O)cc2)o1)c1nc2ccccc2s1 | inconclusive: 11.2 µM [inhibitor, single point]
45 | CSc1ccc(/C=C/C(=O)N2CCCN(C)CC2)cc1 | inactive
46 | CC1=C(C#N)C(NC(=O)c2ccccc2Cl)(C(F)(F)F)C(=O)N1 (configuration not stated) | inconclusive: 2.82 µM [activator, full curve]

Row | Structure (SMILES) | Potency
47 | CCn1c(NCCCO)nc2c(c1=O)C(C)(CC)Cc1ccccc1-2 (configuration not stated) | inconclusive: 28.2 µM [inhibitor, single point]
48 | COc1ccc(-c2ccc(SCC(=O)Nc3cccc(C(C)=O)c3)nn2)cc1OC | inconclusive: 12.6 µM [inhibitor, single point]
49 | Cc1ccccc1Nc1nc(-c2sc(NC(=O)c3cccc(Cl)c3)nc2C)cs1 | inactive
50 | CC(C)OC(=O)CSc1nnc(CNc2nc(-c3ccccc3)cs2)n1C | inactive
51 | CCOc1ccc(-c2nnc(NC(=O)CCCOc3cccc(C)c3)o2)cc1 | inconclusive: 29.1 µM [inhibitor, single point]
52 | CCCCc1ccc(NC(=S)Nc2ccc(Nc3ccc(OC)cc3)cc2)cc1 | inconclusive: 7.08 µM [inhibitor, full curve, poor fit]
53 | O=C(O)c1cccc(NS(=O)(=O)c2ccc(Oc3ccc(S(=O)(=O)Nc4cccc(C(=O)O)c4)cc3)cc2)c1 | inconclusive: 5.62 µM [activator, single point]
54 | c1csc(-c2nnc(-c3ccc(N4CCOCC4)cc3)o2)c1 | inconclusive: 13 µM [inhibitor, single point]
55 | Cc1cccc(-n2c(O)c(C=Nc3cc(O)ccc3C)c3ccccc3c2=O)n1 | inconclusive: 1.26 µM [inhibitor, single point]
56 | COc1ccc(/C=C/C(=O)Nc2ccc3nc4c(c(Nc5ccccc5OC)c3c2)CCCC4)cc1 | inconclusive: 35.5 µM [activator, single point]
57 | CC(C)n1c(N2CCN(CC(=O)NCc3cccs3)CC2)nc2ccccc21 | inconclusive: 0.058 µM [inhibitor, full curve, poor fit]
58 | CC1CCC2(CC1)NC(=O)N(CC(=O)Nc1ccc(N3CCOCC3)cc1)C2=O (configuration not stated) | inactive
59 | CC1=NNC(=O)/C1=C\c1cn(-c2ccccc2)nc1-c1ccc(F)cc1 | active: 8.91 µM
60 | CN(C)c1ccc(C(=O)c2ccc(N(C)C)c3ccccc23)cc1 | inconclusive: 0.199 µM [inhibitor, full curve, poor fit]
61 | NC1=C(Br)C(=O)c2ncccc2C1=O | active: 2.51 µM
62 | COc1cc(C(=O)NC2CCCc3ccccc32)ccc1OCC(=O)Nc1ccc(F)cc1 (configuration not stated) | inconclusive: 0.794 µM [inhibitor, full curve, poor fit]
63 | O=C(c1ccccc1)N1N=C(c2ccccc2)CC1c1ccccc1 (configuration not stated) | inconclusive: 6.31 µM [inhibitor, single point]
64 | Cc1cc(C)nc(NS(=O)(=O)c2ccc(NC(=O)CSc3nc(-c4ccccc4)c(C#N)c(=O)[nH]3)cc2)n1 | inconclusive: 6.31 µM [inhibitor, single point]
65 | Cc1cc(=O)[nH]c(SC(C)C(=O)Nc2cccc3ccccc23)n1 (configuration not stated) | inactive
66 | COc1ccc(/C=N/N=C2/NC(=O)C(CC(=O)O)S2)cc1OCc1ccccc1Cl (configuration not stated) | inactive
67 | CCCCN(CCCC)CCNC(=O)c1ccc2nc(-c3ccccc3NC(C)=O)c(=O)[nH]c2c1 | inconclusive: 16.4 µM [inhibitor, partial curve, poor fit]

Some of the entries so far, tab-delimited.
Row	Structure (SMILES)	Potency
53	O=C(O)c1cccc(NS(=O)(=O)c2ccc(Oc3ccc(S(=O)(=O)Nc4cccc(C(=O)O)c4)cc3)cc2)c1	inconclusive: 5.62 µM [activator, single point]
59	CC1=NNC(=O)/C1=C\c1cn(-c2ccccc2)nc1-c1ccc(F)cc1	active: 8.91 µM
60	CN(C)c1ccc(C(=O)c2ccc(N(C)C)c3ccccc23)cc1	inconclusive: 0.199 µM [inhibitor, full curve, poor fit]
62	COc1cc(C(=O)NC2CCCc3ccccc32)ccc1OCC(=O)Nc1ccc(F)cc1 (configuration not stated)	inconclusive: 0.794 µM [inhibitor, full curve, poor fit]
